Assay results taken from the odorant receptor screen of Mainland et al. (2015).
Values joined by “and” are separate entries in the source; they are usually repeats but may differ in a detail not shown here. Equal entries are not always repeated. Some of the results follow. Single wells; the ratio to wells without odorant was worked out here, and repeats agree poorly.

Tests used:
Assay in all cases: odorant receptor activation (CRE luciferase / Renilla) (fold of no-odor wells); higher = more activation
Settings in all cases: 100 µM
[1] = test system: OR14L1 clone 1029
[2] = test system: OR1A1 P285S clone 1531
[3] = test system: OR1A1 R128H clone 1528
[4] = test system: OR1A1 V233M clone 1287
[5] = test system: OR1A1 V233M clone 1530
[6] = test system: OR1A1 clone 1529
[7] = test system: OR1A2 clone 1158
[8] = test system: OR1C1 clone 1044
[9] = test system: OR1D2 clone 1376
[10] = test system: OR1D5 clone 1289
[11] = test system: OR1D5 clone 1692
[12] = test system: OR1E1 clone 1257
[13] = test system: OR1E1 clone 1546
[14] = test system: OR1E2 C27R clone 1447
[15] = test system: OR1E2 clone 1517
[16] = test system: OR1F1 F75S clone 1281
[17] = test system: OR1F12 clone 1694
[18] = test system: OR1G1 clone 1488
[19] = test system: OR1I1 P139R/Y252S clone 1468
[20] = test system: OR1J1 clone 1696

Compound	odorant receptor activation [1]	odorant receptor activation [2]	odorant receptor activation [3]	odorant receptor activation [4]	odorant receptor activation [5]	odorant receptor activation [6]	odorant receptor activation [7]	odorant receptor activation [8]	odorant receptor activation [9]	odorant receptor activation [10]	odorant receptor activation [11]	odorant receptor activation [12]	odorant receptor activation [13]	odorant receptor activation [14]	odorant receptor activation [15]	odorant receptor activation [16]	odorant receptor activation [17]	odorant receptor activation [18]	odorant receptor activation [19]	odorant receptor activation [20]
c1cnccn1 [pyrazine]	0.955	0.855	0.905	0.874 and 1.09	1.02	0.991	1.13	0.972	1.11	0.791	0.677	0.833	1.06	0.845	0.797	0.825	0.824	0.848	0.951	1.01
CCCCCCCCCC=O [decyl aldehyde]	1.62	1.4	1.35	2.19 and 1.2	1.66	1.17	1.23	1.16	1.47	1.34	1.16	1.32	1.48	1.32	1.58	0.959	0.87	0.832	1.01	0.862
C=C(C)C1CC=CCC1 (stereo not given) [r-limonene]	1.6 and 1.16	–	–	–	5.3 and 1.79 and 2.31	–	1.17 and 0.554	0.962 and 1.68	1.13 and 0.96	–	1.05	–	0.978	1.04 and 0.981	0.966 and 1.05 and 0.847	0.82 and 0.328	1.12	1.17 and 0.45 and 0.901	0.957 and 1.06 and 0.493	1.2
CCCCCCC=O [heptaldehyde]	1.03 and 1.49	–	–	–	–	–	0.536 and 0.728	1.39 and 0.72	1.19 and 1.23	0.305 and 0.908 and 0.66	0.985	–	1.25 and 1.15	0.989 and 0.888	–	0.661 and 1.21 and 0.822	0.659	–	–	0.693
CCCCO [1-butanol]	2.59	0.862	1.23	–	1.42	1.18	0.864	3.34	0.817	0.908	1.06	1.52	1.24	0.795	1.14	0.613	0.9	1.32	1.03	0.938
CC12CCC(C1)C(C)(C)C2=O (stereo not given) [fenchone]	1.27	1.35	1.17	–	0.982	0.947	1.15	0.96	0.846	1.14	0.868	0.942	1.06	0.864	1.19	0.891	0.695	0.885	0.934	0.739
CC=Cc1ccc(O)c(OC)c1 [isoeugenol]	2.27	–	3.08 and 2.8	–	4.61 and 2.96	1.35 and 2.71	0.942	0.765	1.69	0.885 and 1.79	3.27	0.843 and 0.933	1.29 and 2.12	1.71	1.34 and 1.79	1 and 1.38	4.56	0.843 and 2.41	1.05 and 2.65	3.12
CC1COCc2cc3c(cc21)C(C)(C)C(C)C3(C)C (stereo not given) [galaxolide]	10.5	–	5.69 and 5.53	–	4.63 and 4.04	2.59 and 4.21	0.788	3.78	4.73	–	–	1.13 and 1.43	–	2.94	5.58 and 4.18	0.988 and 2.92	3.33 and 1.2	–	2.04 and 4.74	–
CC(C)C=O [isobutyraldehyde]	1.87	0.635 and 0.81	0.942 and 1.11	–	1.06 and 1.19	0.809 and 1.21	0.822	0.604	0.978	0.853 and 0.826	0.865	0.969 and 1.15	1.02 and 1.18	0.851	0.759 and 1.19	0.915 and 0.876	1.04	1.04 and 1.06	0.843 and 0.985	0.946
C=C(C)C1CC=C(C)C(=O)C1 (stereo not given) [r-carvone]	1.11	5.2	8.1	–	–	6.45	0.981	0.891	1.1	0.705	0.718	1.16	0.905	0.942	0.867	0.671	0.787	0.841	1.04	0.932
CCCCCOC(C)=O [n-amyl acetate]	0.787	1.05 and 1.18	0.819 and 0.931	0.779 and 2.05	1.62 and 1.63	0.567 and 1.52	0.814	1.88	0.909	0.329	0.778	0.671	–	0.878	0.909 and 0.793	0.408	1.07	0.496 and 0.754	0.934 and 0.457	0.928
COc1ccccc1O [guaiacol]	1.8	0.627 and 1.31	0.807 and 1.24	1.49 and 1.25 and 0.956	1.58 and 1.45	0.858 and 1.56	0.905	0.736	1.11	0.876 and 0.906	0.954	1.11 and 0.981	1.13 and 1.4	0.845	0.679 and 0.936	1.21 and 0.86	0.692	1.03 and 1.42	0.781 and 1.25	0.764
CC1=NC(C)SC1C (stereo not given)	0.787	1.01 and 1.12	0.793 and 0.995	1.78	1.3 and 1.29	0.672 and 1.13	0.903	0.948	1.08	1.05	–	0.862	–	1.27	0.748 and 1.04	0.658	–	0.886 and 0.822	1.04 and 0.794	–
O=C1CCCCC1 [Cyclohexanone]	0.713	0.596 and 1.15	0.614 and 0.844	0.454	0.803 and 0.909	0.311 and 0.926	0.927	1.35	0.9	0.656	–	0.386	–	0.74	1.24 and 0.781	0.367	–	0.584 and 0.764	1.18 and 0.504	–
COc1cc(C)ccc1O [2-methoxy-4-methylphenol]	2.47	0.716	0.851	1.16 and 1.75	1.21	0.918	1.24	1.79	0.739	0.829	1.03	1.04	1.07	1.03	0.992	0.727	0.864	0.721	0.89	0.882
CCCCCCCCC=O [nonyl aldehyde]	1.16	1.16	1.23	–	1.14	0.924	1.15	0.92	1.09	1.08	0.693	0.93	0.828	1.3	0.991	1	0.909	1.3	0.887	0.725

2 entries drawn at random from those above:
Compound	odorant receptor activation [1]	odorant receptor activation [2]	odorant receptor activation [3]	odorant receptor activation [4]	odorant receptor activation [5]	odorant receptor activation [6]	odorant receptor activation [7]	odorant receptor activation [8]	odorant receptor activation [9]	odorant receptor activation [10]	odorant receptor activation [11]	odorant receptor activation [12]	odorant receptor activation [13]	odorant receptor activation [14]	odorant receptor activation [15]	odorant receptor activation [16]	odorant receptor activation [17]	odorant receptor activation [18]	odorant receptor activation [19]	odorant receptor activation [20]
C=C(C)C1CC=CCC1 (stereo not given) [r-limonene]	1.6 and 1.16	–	–	–	5.3 and 1.79 and 2.31	–	1.17 and 0.554	0.962 and 1.68	1.13 and 0.96	–	1.05	–	0.978	1.04 and 0.981	0.966 and 1.05 and 0.847	0.82 and 0.328	1.12	1.17 and 0.45 and 0.901	0.957 and 1.06 and 0.493	1.2
CCCCCOC(C)=O [n-amyl acetate]	0.787	1.05 and 1.18	0.819 and 0.931	0.779 and 2.05	1.62 and 1.63	0.567 and 1.52	0.814	1.88	0.909	0.329	0.778	0.671	–	0.878	0.909 and 0.793	0.408	1.07	0.496 and 0.754	0.934 and 0.457	0.928

Remaining list, next part:

Compound	odorant receptor activation [1]	odorant receptor activation [2]	odorant receptor activation [3]	odorant receptor activation [4]	odorant receptor activation [5]	odorant receptor activation [6]	odorant receptor activation [7]	odorant receptor activation [8]	odorant receptor activation [9]	odorant receptor activation [10]	odorant receptor activation [11]	odorant receptor activation [12]	odorant receptor activation [13]	odorant receptor activation [14]	odorant receptor activation [15]	odorant receptor activation [16]	odorant receptor activation [17]	odorant receptor activation [18]	odorant receptor activation [19]	odorant receptor activation [20]
c1ccc(Oc2ccccc2)cc1 [diphenyl ether]	0.935	1.48	1.53	–	2.21	1.81	0.95	0.939	0.81	1.08	0.791	1.07	1.41	0.879	1.33	0.897	0.687	0.898	1.05	0.687
CC(C)(O)CCCC1=CCC(C=O)CC1 (stereo not given) [lyral]	–	–	–	1.43	–	–	–	–	–	–	0.814	–	–	–	–	–	0.944	–	–	0.992
CC(C)C(=O)O [isobutyric acid]	2.24	0.884 and 0.724	0.941 and 0.745	–	0.977 and 0.798	0.859 and 1.01	0.885	0.574	0.852	0.708 and 1.18	0.758	1.09 and 1.04	1.05 and 0.919	0.774	0.912 and 0.963	1.1 and 0.856	1.09	1 and 0.891	1.01 and 1.13	0.851
C=C(C)C1CCC2=CC(=O)CC(C)C2(C)C1 (stereo not given) [amyl laurate]	–	–	–	2.22	–	–	–	–	–	–	0.962	–	–	–	–	–	1.56	–	–	1.85
C=CCc1ccc(O)c(OC)c1 [eugenol]	1.54 and 2.02	–	1.03 and 1.33 and 1.47	4.91 and 2.7 and 2.19	–	1.46 and 2.12 and 1.69	1.91 and 1.37	1.09 and 1.4	1.44 and 1.51	3.19 and 1.51	1.3	0.975 and 1.29	1.32	1.42 and 1.32	1.91 and 1.09 and 1.56	2.44 and 1.29	0.934	1.48 and 1.33 and 1.11	1.23 and 0.551 and 1.06	0.82
C=CCc1ccc(OC(C)=O)c(OC)c1 [eugenol acetate]	1.64	2.05	2.53	–	2.3	2.44	1.89	1.83	1.56	2.14	1.5	1.69	1.71	1.37	1.88	1.6	1.4	1.33	1.71	2.34
CC/C=C\CCO [cis-3-hexen-1-ol]	0.893	1.24	0.902	1.32 and 1.02	0.853	1.14	0.93	0.824	0.189	0.924	1.04	0.97	0.721	0.143	0.989	1.24	1.13	0.877	1.18	1.26
CCCCCC(C)=O [2-heptanone]	0.597	2.16 and 0.816	0.84 and 0.714	5.38	1.38 and 1.03	1.15 and 1.02	1.03	0.562	1.27	0.628	–	0.582	–	1.06	0.844 and 0.543	0.827	–	0.857 and 0.691	–	–
CC12C=CCC1C1CCC3=CC(=O)CCC3(C)C1CC2 (stereo not given) [androstadienone]	2.28	0.682 and 1.25	1.06 and 1.56	1.18 and 0.836	1.22 and 1.49	0.794 and 1.6	0.807	1.73	1.19	0.921 and 0.968	–	1.21 and 1.33	1.06 and 1.55	1.16	0.919 and 1.41	1.13 and 1.07	–	1.05 and 1.56	1.06 and 1.68	–
CC(C)(C)c1ccc(CCC=O)cc1 [bourgeonal]	0.879	1.47	1.32	1.31	1.63	1.61	0.613	0.805	0.161	0.76	–	0.919	0.639	0.116	0.99	0.933	–	1.01	1.18	–
CC(=O)c1ccccc1 [acetophenone]	0.566	1.49 and 0.806	0.963 and 0.882	1.82	1.37 and 1.18	0.752 and 1.22	1.31	0.812	1.01	0.802	–	1.53	–	1.12	1.01 and 0.775	0.857	–	0.945 and 0.796	0.897 and 0.472	–
COC(=O)c1ccccc1 [methyl benzoate]	0.865	0.811 and 1.1	0.87 and 1.15	1.28	1.24 and 1.37	0.623 and 1.28	0.961	2.01	1.05	0.643	–	0.417	–	0.771	0.982 and 0.983	0.474	–	0.539 and 0.857	0.964 and 0.488	–
CC(C)CC(=O)O [isovaleric acid]	1.51	0.943	1	–	0.916	0.767	1.32	1.24	1.04	0.864	0.812	0.836	0.749	0.921	0.891	0.914	1.06	1.04	0.866	0.794
CCCCCCCCCCC=O [undecanal]	1.25	0.904	0.943	–	1.25	1	0.97	0.957	1.44	0.965	0.55	0.972	0.955	0.952	1.23	0.885	0.937	1.06	0.969	1.01
CC12C=CCC1C1CCC3CC(=O)CCC3(C)C1CC2 (stereo not given) [androstenone]	1.75	0.872	1.1	1.52	1.47	1.21	6.11	1.98	0.59	1.04	–	1.67	1.07	1.08	1.22	1.24	–	1.18	1.12	–
